# Reference: publication PMC7348071
# Results are given in words; binding and its absence hold for the method and conditions named. Binding seen in cells or lysates may run through a third protein. Some binding calls cover weakened binding; strength is not graded here. Where a sequence is shown, tags or fusion partners need not be part of it.
# T1: Fibulin-1C (untagged, overexpressed) (human) (UniProt P23142)
# T1 sequence: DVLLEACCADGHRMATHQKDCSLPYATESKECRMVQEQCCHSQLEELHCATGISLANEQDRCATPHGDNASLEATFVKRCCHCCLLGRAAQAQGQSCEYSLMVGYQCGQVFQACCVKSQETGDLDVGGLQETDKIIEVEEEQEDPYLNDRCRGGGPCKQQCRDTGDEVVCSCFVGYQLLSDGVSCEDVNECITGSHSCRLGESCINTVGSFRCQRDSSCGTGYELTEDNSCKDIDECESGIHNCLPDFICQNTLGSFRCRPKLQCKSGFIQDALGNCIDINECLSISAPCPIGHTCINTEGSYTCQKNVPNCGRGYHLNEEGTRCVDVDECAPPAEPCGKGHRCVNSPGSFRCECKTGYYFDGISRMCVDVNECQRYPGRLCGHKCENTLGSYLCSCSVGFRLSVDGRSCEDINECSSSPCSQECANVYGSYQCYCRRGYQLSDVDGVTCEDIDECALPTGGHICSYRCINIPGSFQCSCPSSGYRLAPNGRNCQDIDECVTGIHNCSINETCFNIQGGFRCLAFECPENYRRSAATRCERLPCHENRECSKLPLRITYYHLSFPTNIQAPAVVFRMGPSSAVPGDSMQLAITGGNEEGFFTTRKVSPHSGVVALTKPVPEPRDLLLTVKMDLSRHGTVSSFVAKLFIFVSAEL
# T2: Fibulin-1D (untagged, overexpressed) (human) (UniProt P23142)
# T2 sequence: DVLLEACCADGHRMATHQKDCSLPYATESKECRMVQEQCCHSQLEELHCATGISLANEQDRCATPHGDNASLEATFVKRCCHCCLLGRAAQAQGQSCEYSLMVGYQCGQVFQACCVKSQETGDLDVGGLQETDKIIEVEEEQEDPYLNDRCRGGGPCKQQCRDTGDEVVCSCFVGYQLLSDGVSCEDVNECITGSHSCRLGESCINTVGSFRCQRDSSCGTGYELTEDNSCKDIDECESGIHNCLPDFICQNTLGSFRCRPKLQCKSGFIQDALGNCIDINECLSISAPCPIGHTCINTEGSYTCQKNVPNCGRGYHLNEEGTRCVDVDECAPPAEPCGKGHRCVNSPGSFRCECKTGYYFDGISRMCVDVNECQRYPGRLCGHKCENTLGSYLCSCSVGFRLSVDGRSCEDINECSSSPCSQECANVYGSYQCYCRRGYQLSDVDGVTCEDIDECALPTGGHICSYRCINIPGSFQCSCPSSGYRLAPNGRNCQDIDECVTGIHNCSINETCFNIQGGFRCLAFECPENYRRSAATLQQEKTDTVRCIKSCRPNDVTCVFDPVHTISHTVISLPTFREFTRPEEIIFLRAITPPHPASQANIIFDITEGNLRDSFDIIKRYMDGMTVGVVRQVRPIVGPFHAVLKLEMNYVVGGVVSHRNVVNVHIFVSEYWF
# Columns and labels:
# Assay in all cases: co-IP; HEK293T co-transfected with untagged FBLN1C or FBLN1D and EGFR-GFP; 500 ug lysate (1% NP40, 120 mM NaCl, HEPES 7.8); IP with anti-FBLN1 or anti-EGFR antibody on Protein A sepharose at 4 C, western blot; also done on serum starved cells with and without EGF (100 ng/ml, 5 min), association unaffected
# [1] = target: T1, Fibulin-1C (untagged, overexpressed) (human)
# [2] = target: T2, Fibulin-1D (untagged, overexpressed) (human)
# [3] = target: EGFR-GFP (GFP tagged Epidermal Growth Factor Receptor, overexpressed) (UniProt P00533)
binding [1],binding [2],binding [3],Molecule
binds,binds,,"EGFR-GFP (GFP tagged Epidermal Growth Factor Receptor, overexpressed) (from UniProt P00533 25-1210)"
,,binds,"Fibulin-1D (untagged, overexpressed) (protein, UniProt P23142-1 30-703) DVLLEACCADGHRMATHQKDCSLPYATESKECRMVQEQCCHSQLEELHCATGISLANEQDRCATPHGDNASLEATFVKRCCHCCLLGRAAQAQGQSCEYSLMVGYQCGQVFQACCVKSQETGDLDVGGLQETDKIIEVEEEQEDPYLNDRCRGGGPCKQQCRDTGDEVVCSCFVGYQLLSDGVSCEDVNECITGSHSCRLGESCINTVGSFRCQRDSSCGTGYELTEDNSCKDIDECESGIHNCLPDFICQNTLGSFRCRPKLQCKSGFIQDALGNCIDINECLSISAPCPIGHTCINTEGSYTCQKNVPNCGRGYHLNEEGTRCVDVDECAPPAEPCGKGHRCVNSPGSFRCECKTGYYFDGISRMCVDVNECQRYPGRLCGHKCENTLGSYLCSCSVGFRLSVDGRSCEDINECSSSPCSQECANVYGSYQCYCRRGYQLSDVDGVTCEDIDECALPTGGHICSYRCINIPGSFQCSCPSSGYRLAPNGRNCQDIDECVTGIHNCSINETCFNIQGGFRCLAFECPENYRRSAATLQQEKTDTVRCIKSCRPNDVTCVFDPVHTISHTVISLPTFREFTRPEEIIFLRAITPPHPASQANIIFDITEGNLRDSFDIIKRYMDGMTVGVVRQVRPIVGPFHAVLKLEMNYVVGGVVSHRNVVNVHIFVSEYWF"
,,binds,"Fibulin-1C (untagged, overexpressed) (protein, UniProt P23142-4 30-683) DVLLEACCADGHRMATHQKDCSLPYATESKECRMVQEQCCHSQLEELHCATGISLANEQDRCATPHGDNASLEATFVKRCCHCCLLGRAAQAQGQSCEYSLMVGYQCGQVFQACCVKSQETGDLDVGGLQETDKIIEVEEEQEDPYLNDRCRGGGPCKQQCRDTGDEVVCSCFVGYQLLSDGVSCEDVNECITGSHSCRLGESCINTVGSFRCQRDSSCGTGYELTEDNSCKDIDECESGIHNCLPDFICQNTLGSFRCRPKLQCKSGFIQDALGNCIDINECLSISAPCPIGHTCINTEGSYTCQKNVPNCGRGYHLNEEGTRCVDVDECAPPAEPCGKGHRCVNSPGSFRCECKTGYYFDGISRMCVDVNECQRYPGRLCGHKCENTLGSYLCSCSVGFRLSVDGRSCEDINECSSSPCSQECANVYGSYQCYCRRGYQLSDVDGVTCEDIDECALPTGGHICSYRCINIPGSFQCSCPSSGYRLAPNGRNCQDIDECVTGIHNCSINETCFNIQGGFRCLAFECPENYRRSAATRCERLPCHENRECSKLPLRITYYHLSFPTNIQAPAVVFRMGPSSAVPGDSMQLAITGGNEEGFFTTRKVSPHSGVVALTKPVPEPRDLLLTVKMDLSRHGTVSSFVAKLFIFVSAEL"
